Source: paper PMC12040169 (PLOS Biology, 2025)
Some of the results follow.

What follows are compounds tested on T1, CTL2-GFP (C. trachomatis L2/434/Bu, GFP-expressing). Settings: bulk GFP, single well; 28.5 h, 10 µM; inhibitor.
T1 construct: L2/434/Bu, GFP-expressing
Design: species or system HeLa; Intracellular C. trachomatis growth in HeLa cells, bulk GFP fluorescence relative to DMSO

SMILES	% of control remaining
O=C(CSc1ccc2nnc(-c3ccc(F)cc3)n2n1)N1CCCCC1 [CBK287520]	140.386%
CN(C)CC1CCCCN1C(=O)C1CC(=O)N(c2cccc(F)c2)C1 (centres unmarked) [CBK282192]	48.5002%
CCOC(=O)N1CCC(NS(=O)(=O)c2ccc3c(c2)oc(=O)n3C)CC1 [CBK304666]	111.992%
NNc1ccc(/C=C/c2ccc(NN)cc2S(=O)(=O)O)c(S(=O)(=O)O)c1 [CBK278163N]	124.201%
Cc1nc(C)n(CC2CCCN(S(=O)(=O)c3cnc4ccsc4c3)C2)n1 (centres unmarked) [CBK306274]	78.9519%
Cc1ccc(C)c(C(C)NC(=O)C2CCCN(S(C)(=O)=O)C2)c1 (centres unmarked) [CBK304672]	104.831%
O=C1c2ccccc2C(=O)N1CCCc1nn2c(-c3cccnc3)nnc2s1 [CBK270140]	142.693%
O=C(CCn1cnc2ccccc2c1=O)Nc1ccc(Cl)c(Cl)c1 [CBK266738]	143.009%
Nc1nnc(SCC(=O)NCc2ccc3c(c2)OCO3)s1 [CBK267853]	115.793%
CO[C@H]1CC[C@H](C(=O)NC(Cc2ccsc2)c2cccnc2)CC1 (some centres unmarked) [CBK285114]	94.9559%
C=CCn1c(Cc2csc(NC(=O)c3cc(C)cc(C)c3)n2)n[nH]c1=S [CBK295358]	161.17%
CC(C)(C)OC(=O)NCc1ccc(-c2nnc(CC(=O)O)o2)cc1 [CBK169899D]	116.644%
Cc1ccc(C2SCC(C(=O)O)N2C(=O)c2cccc(Cl)c2)cc1 (centres unmarked) [CBK286931]	156.465%
COc1ccc(CNc2cncc(-c3ccc(C(C)C)cc3)n2)cc1 [CBK065514]	97.0073%
CC(=O)NCCOc1nccnc1OCc1ccc(Cl)c(Cl)c1 [CBK161582]	124.063%
NC(=O)c1ccc(-c2cncc(N3CCN(CCO)CC3)n2)cc1 [CBK065392]	125.307%
CCN1CC2(CCNCC2)c2ccccc21 [CBK116520]	109.702%
O=C(NCCn1cccn1)c1ncoc1-c1ccc(F)cc1 [CBK282355]	149.764%
CN(C)CC(O)c1cc2n(n1)CCCN(CC(=O)NCc1cccs1)C2 (centres unmarked) [CBK306738]	130.755%
O=C1NC(=O)C(CC(=O)N2CCC3(CC2)CC(=O)c2cc(Cl)ccc2O3)N1 (centres unmarked) [CBK156485]	99.1794%
CNC(=O)Nc1ccccc1NC(=O)NC [CBK261401]	114.663%
CCc1nn(CC(=O)N(C)C)c(=O)c2cc3oc(C)cc3n12 [CBK283576]	111.595%
Cc1cc(=O)n2c(-c3ccc(NS(=O)(=O)c4cccnc4)cc3)csc2n1 [CBK287837]	111.987%
Cn1cc(-c2nc(C3COCCN3Cc3ccc(F)cc3)no2)cn1 (centres unmarked) [CBK305391]	122.033%
O=C(NCCCN1CCOCC1)c1ccc(/C=N/O)nc1 [CBK264468]	130.899%
Cc1ccc(C(C)C)c(OCC(=O)Nc2ccc(F)c([N+](=O)[O-])c2)c1 [CBK263771]	61.9874%
COc1ccc(-n2ncc(-c3ccc(C(F)(F)F)cc3)n2)cc1 [CBK112688]	125.169%

SMILES	% of control remaining
O=C(NCCc1ccccc1)Nc1cc2cccnc2c(Br)n1 [CBK063283]	64.8619%
Cc1nc(CCCn2cnc3cnccc3c2=O)sc1C [CBK306610]	95.4564%
CN(C)CC(C)(C)CNC1CCN(C)CC1 [CBK261926]	113.514%
Fc1ccc(OCCNCCC2NCCc3c2[nH]c2ccccc32)cc1 (centres unmarked) [CBK066970]	100%
O=S(=O)(c1cccc2nsnc12)N1CCCN(Cc2ccsc2)CC1 [CBK038570]	95.9135%
N#CC1=C(SCc2ccccc2)SC(c2ccc(O)c(O)c2)NC1=O (centres unmarked) [CBK293972]	121.596%
CC(Oc1ccc(Br)cc1Cl)C(=O)NCCCN1CCCC1=O (centres unmarked) [CBK268138]	79.7573%
Cc1cc2c(cc3c(=O)n(CCN4CCCC4)nc(C)n32)s1 [CBK284126]	147.783%
COc1cc2cc(C(=O)N3CCN(Cc4ccc5c(c4)OCO5)CC3)c(=O)oc2cc1OC [CBK074790]	113.065%
Cc1ccc(COc2ccc(/C=N/NC(=O)CN3CCCCC3)cc2)cc1 [CBK262227]	96.4195%
O=C(NCCc1nc2ccccc2[nH]1)Nc1ccccc1 [CBK261803]	106.167%
COC(=O)[C@H]1CCc2ccccc2N1C(C)=O [CBK284256]	110.256%
CCN(CC)C(=O)/C=C/c1ccc(C(C)C)cc1 [CBK149636]	112.541%
O=C(c1ccccc1Cl)c1cc(Cl)ccc1-n1ccnc1 [CBK005151]	85.5646%
CN(C)CCCOC(=O)CN1c2ccccc2CCc2ccccc21 [CBK022863C]	123.054%
Cn1c(=O)c(C(N)=O)c(O)c2ccccc21 [CBK027440]	100%
CCNC(=O)C1(Cc2ccc(-c3cccs3)cc2)CCN(C(=O)c2ccccc2)CC1 [CBK285794]	149.136%
CCOc1ccc(N(CC(=O)O)S(=O)(=O)c2ccc(SC)cc2)cc1 [CBK263764]	122.83%
CNC(=O)c1ccc(OC)c(S(=O)(=O)NC)c1 [CBK270153]	154.661%
Cc1ccc(Cn2c(=N)n(CC(=O)c3cc(C(C)(C)C)c(O)c(C(C)(C)C)c3)c3ccccc32)cc1 [CBK262458B]	14.7302%
O=C1C2C3C=CC(C3)C2C(=O)N1CCNCCO (centres unmarked) [CBK264414]	142.414%
Cc1nccn1CC(=O)N1CCCC(C)(C(=O)NC2CCCC2)C1 (centres unmarked) [CBK282210]	123.518%
CCOC(=O)c1ccc(N2C(=O)CC(N3CCN(c4cccc(OC)c4)CC3)C2=O)cc1 (centres unmarked) [CBK265396]	100%
CC(C)(C)c1ccc([S+]([O-])c2cncc(N3CCNCC3)n2)cc1 (centres unmarked) [CBK051434C]	101.992%
Cc1cc(C)c2c(c1)C1(C(=O)N2)C(C#N)=C(N)Oc2[nH]nc(-c3ccccc3)c21 (centres unmarked) [CBK267367]	150.035%
CC(C)c1nn(CN(C)Cc2ccccc2)c(=S)[nH]1 [CBK295166]	148.528%
CN1CCC(Oc2nc3ccccc3nc2C(F)(F)F)CC1 [CBK113299]	102%

SMILES	% of control remaining
Cc1ccc(OCCNC(=O)C(C)Cn2cccn2)cc1 (centres unmarked) [CBK283252]	78.7399%
Cc1nccn1CCCNC(=O)c1ccc(N2CCCC2)cc1 [CBK281589]	147.82%
N#Cc1c(CN2CCCC(c3noc(C4CC4)n3)C2)cn2ccccc12 (centres unmarked) [CBK305332]	122%
O=C(NCCc1c[nH]cn1)NC1CCCCC1 [CBK269975]	118.255%
COc1ccccc1C(=O)NCC(=O)N/N=C/c1ccc(N(C)C)cc1 [CBK261989]	103.953%
COc1cc(OC)nc(CN2C(=O)C3(CC(=O)N(C)C3=O)c3cc(F)ccc32)n1 (centres unmarked) [CBK075475]	89.2466%
CN(C)c1nc(NCc2ccccc2)nc(SCC(=O)Nc2ccccc2)n1 [CBK268810]	99.4615%
CCOC(=O)c1[nH]c2ccccc2c1NC(=O)[C@@H]1CCCN1C [CBK160171T]	110.847%
CN(C)CCN(Cc1ccccc1)C(=O)NCc1ccc(Cl)cc1 [CBK155106]	104.237%
Nc1nnc(Sc2ccc([N+](=O)[O-])c3nonc23)s1 [CBK266712]	100%
O=C(O)CCc1ccc(-c2ccc(Nc3cccnc3)nc2)cc1 [CBK037768]	172.624%
CCCC(=O)N1C2CCC1c1cnc3cc(-c4ccco4)nn3c1C2 (centres unmarked) [CBK284383]	117.636%
CN(C)CCN(Cc1ccccc1)C(=O)NCc1c(Cl)cccc1Cl [CBK155107]	101.904%
CC(NC(=O)CCn1cncn1)c1cccs1 (centres unmarked) [CBK282199]	151.717%
Cc1cc2c(cc1Br)NC(=O)/C2=N\O [CBK288453]	94.6323%
COc1ccc(-c2cc(=O)oc3cc(OCC(=O)c4cc5ccccc5o4)ccc23)cc1 [CBK265634]	127.471%
Nc1ccc(-c2cncc(N3CCN(c4ccncc4)CC3)n2)cc1 [CBK065681]	111.363%
CC(Oc1cccc(Cl)c1)C(=O)NCc1ccc(S(N)(=O)=O)cc1 (centres unmarked) [CBK265477]	100%
COc1ccccc1CC(=O)N1CCC(c2onc3c2CCC3)CC1 [CBK284464]	78.4301%
CN1C(=O)CC2(C1=O)C(=O)N(CCCn1c(=O)n(C)c3ccccc31)c1ccc(F)cc12 (centres unmarked) [CBK075441]	82.0923%
CCOC(=O)c1ccccc1OC(=O)c1ccc2c(c1)C1C=CCC1C(C(=O)O)N2 (centres unmarked) [CBK265155]	120.277%
CC(C)c1cccc(-n2cc(O)c(C(=O)NCCCn3cccn3)n2)c1 [CBK305360]	114.689%
COc1ccc(C(NC(=O)C2CCN(C(=O)OCc3ccccc3)CC2)c2ccccc2C)cn1 (centres unmarked) [CBK059726]	106.989%
c1ccc2sc(-c3cc(N4CCN(CCN5CCCC5)CC4)ncn3)cc2c1 [CBK091172]	88.5478%
CCOC(=O)c1ccc(COc2cccc(-c3cnc4ccccc4n3)c2)cc1 [CBK266395]	121.218%
C[C@]12C(=O)c3ccccc3NC(=O)C1[C@H]2C(=O)N1CCCCC1 (some centres unmarked) [CBK285281]	134.333%

A draw from above in order of formula weight, falling:
SMILES	% of control remaining
COc1ccccc1C(=O)NCC(=O)N/N=C/c1ccc(N(C)C)cc1 [CBK261989]	103.953%
Fc1ccc(OCCNCCC2NCCc3c2[nH]c2ccccc32)cc1 (centres unmarked) [CBK066970]	100%
CN(C)CCN(Cc1ccccc1)C(=O)NCc1ccc(Cl)cc1 [CBK155106]	104.237%
CC(C)c1nn(CN(C)Cc2ccccc2)c(=S)[nH]1 [CBK295166]	148.528%
